Experimental data: patent publication US20100119506A1, “Effectors of PAR-2 Activation and Their Use in the Modulation of Inflammation” (BOEHRINGER INGELHEIM INTERNATIONAL GMBH, priority 2008, published 2010)
These are yes or no findings as the source states them, for the method shown. Some binding calls cover weakened binding; strength is not graded here.

Molecular target: T1, Murine PAR-2 peptide (murine)
T1 sequence (peptide): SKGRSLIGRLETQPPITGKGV
Assay: Kinexa, peptide in solution

B1: Antibody Par-C (antibody, V domains shown)
VH: QVELVESGGGLVQPGGSLRLSCAASGFTFSSYAMNWVRQAPGKGLEWVSAISFSGHLTGYADSVKGRFTISRDNSKNTLYLQMNSLRAEDTAVYYCARIQNDPMDVWGQGTLVTVSS
VL: DIELTQPPSVSVAPGQTARISCSGDNLGKKYVQWYQQKPGQAPVLVIYDDSNRPSGIPERFSGSNSGNTATLTISGTQAEDEADYYCQTWDYSSIRDETNVFGGGTKLTVLG
  binding: binds
